PubChem BioAssay AID493246, Drosophila RNAi Screening Center, 2011

Screen: 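Genes fly cells need to grow and stay alive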 (primary screen)
System: Drosophila Kc and S2R+ cells
Reagents: long dsRNA against Drosophila genes
Detection: 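Raw, unnormalised count of remaining cells in each well; per-plate z-scores of cell number underlie the calls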
Scale: Kc cell number and S2R+ cell number: higher = more cells remaining
Active means: 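Active when the per-plate z-score of cell number is 3 or more in the direction of fewer cells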
The screen tested about 21,000 reagents; this is an unselected part of those that have a named target and a result. Over the whole deposit, 429 (2%) got an active call. 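Values are raw and not normalised between plates; calls rest on per-plate z-scores that were not deposited.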 Unmarked entries are inactive. The record does not give: the amount of reagent, the time to read-out.

The first 4 records as a preview:
Target gene | amplicon | Kc cell number, rep 1 | Kc cell number, rep 2 | S2R+ cell number, rep 1 | S2R+ cell number, rep 2
Sans | DRSC06357 | 1.15e6 | 1.39e6 | 1.26e6 | 1.10e6
alc | DRSC07062 | 1.48e6 | 1.56e6 | 1.19e6 | 1.33e6
CG12990 | DRSC19510 | 1.52e6 | 1.55e6 | 1.02e6 | 1.10e6
mRpS33 | DRSC14239 | 1.59e6 | 1.62e6 | 1.05e6 | 1.51e6

Results, repeating the preview:
Target gene | amplicon | Kc cell number, rep 1 | Kc cell number, rep 2 | S2R+ cell number, rep 1 | S2R+ cell number, rep 2
Sans | DRSC06357 | 1.15e6 | 1.39e6 | 1.26e6 | 1.10e6
alc | DRSC07062 | 1.48e6 | 1.56e6 | 1.19e6 | 1.33e6
CG12990 | DRSC19510 | 1.52e6 | 1.55e6 | 1.02e6 | 1.10e6
mRpS33 | DRSC14239 | 1.59e6 | 1.62e6 | 1.05e6 | 1.51e6
STUB1 | DRSC03282 | 1.62e6 | 1.77e6 | 1.30e6 | 1.49e6
Nepl12 | DRSC16411 | 1.40e6 | 1.40e6 | 1.30e6 | 1.37e6
CG15435 | DRSC00450 | 1.59e6 | 1.64e6 | 1.20e6 | 1.41e6
CG13659 | DRSC14660 | 1.55e6 | 1.52e6 | 1.00e6 | 1.14e6
ph-d | DRSC18819 | 1.38e6 | 1.52e6 | 7.32e5 | 8.20e5
CG43894 | DRSC10123 | 1.49e6 | 1.50e6 | 1.08e6 | 1.22e6
pum | DRSC12722 | 1.57e6 | 1.64e6 | 1.08e6 | 1.32e6
pum | DRSC12726 | 1.83e6 | 1.79e6 | 1.12e6 | 1.36e6
pum | DRSC17037 | 1.32e6 | 1.24e6 | 8.14e5 | 9.56e5
pum | DRSC17038 | 1.72e6 | 1.98e6 | 1.32e6 | 1.48e6
140up | DRSC12634 | 1.52e6 | 1.62e6 | 1.18e6 | 1.28e6
Obp99a | DRSC15303 | 1.40e6 | 1.45e6 | 8.06e5 | 8.81e5
CG46301 | DRSC01916 | 1.43e6 | 1.45e6 | 1.06e6 | 1.15e6
CG10089 | DRSC09694 | 1.57e6 | 1.63e6 | 1.19e6 | 1.31e6
CG10089 | DRSC09695 | 1.63e6 | 1.67e6 | 1.47e6 | 1.59e6
CG34046 (retired record) | DRSC14075 | 1.34e6 | 1.44e6 | 1.04e6 | 1.07e6
Ssdp | DRSC16211 | 1.40e6 | 1.39e6 | 9.66e5 | 1.00e6
ics | DRSC01878 | 1.36e6 | 1.37e6 | 1.37e6 | 1.28e6
Cpr49Ae | DRSC07201 | 1.33e6 | 1.40e6 | 9.77e5 | 1.08e6
Prp16 | DRSC19538 | 5.74e5 | – | 8.68e5 | –
Prp16 | DRSC19542 | 1.55e6 | 1.51e6 | 1.04e6 | 1.08e6
CG13324 | DRSC06361 | 1.51e6 | 1.55e6 | 1.28e6 | 1.42e6
e | DRSC16936 | 1.56e6 | 1.69e6 | 1.30e6 | 1.39e6
Smug | DRSC15762 | 1.24e6 | 1.32e6 | 1.18e6 | 1.31e6
CG3982 | DRSC10394 | 1.16e6 (active) | 1.34e6 | 6.84e5 | 8.70e5
mRpL30 | DRSC18416 | 1.51e6 | 1.55e6 | 9.56e5 | 1.08e6
CG6067 | DRSC18399 | 1.49e6 | 1.48e6 | 1.10e6 | 1.16e6
CG7992 | DRSC20070 | 1.45e6 | 1.49e6 | 1.08e6 | 1.14e6
CG13842 | DRSC14692 | 1.75e6 | 1.73e6 | 1.05e6 | 1.16e6
CG11322 | DRSC02142 | 1.70e6 | 1.84e6 | 1.14e6 | 1.31e6
CG42369 | DRSC03244 | 1.54e6 | 1.61e6 | 1.07e6 | 1.24e6
CG14160 | DRSC10161 | 1.62e6 | 1.61e6 | 1.42e6 | 1.54e6
Rtel1 | DRSC18343 | 1.41e6 | 1.40e6 | 9.95e5 | 1.12e6
rno | DRSC08584 | 1.56e6 | 1.41e6 | 1.05e6 | 1.22e6
CG14642 | DRSC12228 | 1.66e6 | 1.66e6 | 1.25e6 | 1.41e6
Kdm3 | DRSC16393 | 1.51e6 | 1.59e6 | 1.23e6 | 1.34e6
CG11841 | DRSC14399 | 5.26e5 | – | 8.48e5 | –
CG18213 | DRSC15316 | 1.22e6 | 1.31e6 | 1.07e6 | 1.20e6
CG10587 | DRSC11627 | 1.36e6 | 1.41e6 | 1.31e6 | 1.32e6
flfl | DRSC16474 | 1.34e6 | 1.34e6 | 1.04e6 | 1.09e6
Elba3 | DRSC00469 | 1.20e6 | 1.37e6 | 7.27e5 | 5.47e5
CG13369 | DRSC18481 | 1.42e6 | 1.45e6 | 9.02e5 | 9.82e5
mspo | DRSC07652 | 1.54e6 | 1.53e6 | 1.27e6 | 1.31e6
CG33178 | DRSC19950 | 1.78e6 | 1.73e6 | 1.23e6 | 1.22e6
PGAP2 | DRSC00632 | 1.00e6 | 1.22e6 | 5.47e5 | 7.59e5
Pka-R1 | DRSC11674 | 1.48e6 | 1.53e6 | 1.23e6 | 1.31e6
Pka-R1 | DRSC11875 | 1.64e6 | 1.67e6 | 1.31e6 | 1.41e6
Vps13B | DRSC15060 | 1.77e6 | 1.80e6 | 1.09e6 | 1.26e6
St4 | DRSC07008 | 1.60e6 | 1.68e6 | 1.28e6 | 1.46e6
CG17047 | DRSC06648 | 1.67e6 | 1.80e6 | 1.43e6 | 1.55e6
CheA84a | DRSC12669 | 1.43e6 | 1.41e6 | 1.06e6 | 1.20e6
CG15882 | DRSC19735 | 1.43e6 | 1.47e6 | 1.07e6 | 1.15e6
CG1971 | DRSC15406 | 5.18e5 | – | 7.72e5 | –
CG13631 | DRSC14632 | 1.62e6 | 1.75e6 | 1.14e6 | 1.25e6
ZnT41F | DRSC04850 | 1.48e6 | 1.53e6 | 1.13e6 | 1.15e6
